Experimental data: PubChem BioAssay AID1259405 (NCATS, 2018)
This is an unselected part of about 50,000 reagents tested. About 4,000 of all reagents (8%) count as active. 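Mouse siRNA library applied to hamster cells; one well for each siRNA.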 The numbers tell different reagents against one gene apart.

Purpose: 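Mouse-designed siRNAs used to find CHO productivity engineering targets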 (primary screen)
System: Chinese hamster CHO-K1 ovary cells with stable secreted eGFP expression
Reagent: single siRNA against mouse genes, 0.8 pmol siRNA per well (2 µl of 400 nM stock)
Timing: 3 days
Measured: 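Per-well intracellular GFP measured by laser scanning cytometry, plus viability from ATP luminescence, each relative to plate median of non-targeting control wells, in %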
Direction: GFP, % of control: higher = more GFP per well, higher productivity; viability (ATP), % of control: higher = more viable cells (more ATP)
Hit rule: 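Called active when intracellular GFP, relative to negative control, is at or above 120%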

{"gene knocked down": "Chil5 (GeneID 229687)", "reagent no.": 1, "GFP, % of control": 83.7, "viability (ATP), % of control": 63.1, "Outcome": "inactive"}
{"gene knocked down": "Chil5 (GeneID 229687)", "reagent no.": 2, "GFP, % of control": 63.3, "viability (ATP), % of control": 72.7, "Outcome": "inactive"}
{"gene knocked down": "Chil5 (GeneID 229687)", "reagent no.": 3, "GFP, % of control": 78.1, "viability (ATP), % of control": 53.8, "Outcome": "inactive"}
{"gene knocked down": "Slco1a4 (GeneID 28250)", "reagent no.": 1, "GFP, % of control": 90.7, "viability (ATP), % of control": 67.8, "Outcome": "inactive"}
{"gene knocked down": "Slco1a4 (GeneID 28250)", "reagent no.": 2, "GFP, % of control": 124, "viability (ATP), % of control": 101, "Outcome": "active"}
{"gene knocked down": "Slco1a4 (GeneID 28250)", "reagent no.": 3, "GFP, % of control": 85.8, "viability (ATP), % of control": 96.8, "Outcome": "inactive"}
{"gene knocked down": "Btbd35f1 (GeneID 71847)", "reagent no.": 1, "GFP, % of control": 92.2, "viability (ATP), % of control": 81.4, "Outcome": "inactive"}
{"gene knocked down": "Btbd35f1 (GeneID 71847)", "reagent no.": 2, "GFP, % of control": 53.7, "viability (ATP), % of control": 68.5, "Outcome": "inactive"}
{"gene knocked down": "Btbd35f1 (GeneID 71847)", "reagent no.": 3, "GFP, % of control": 77.2, "viability (ATP), % of control": 98.8, "Outcome": "inactive"}
{"gene knocked down": "Nt5el (GeneID 66763)", "reagent no.": 1, "GFP, % of control": 79.3, "viability (ATP), % of control": 75.7, "Outcome": "inactive"}
{"gene knocked down": "Nt5el (GeneID 66763)", "reagent no.": 2, "GFP, % of control": 104, "viability (ATP), % of control": 65.3, "Outcome": "inactive"}
{"gene knocked down": "Nt5el (GeneID 66763)", "reagent no.": 3, "GFP, % of control": 53.6, "viability (ATP), % of control": 75.3, "Outcome": "inactive"}
{"gene knocked down": "Pts (GeneID 19286)", "reagent no.": 1, "GFP, % of control": 52.4, "viability (ATP), % of control": 68.9, "Outcome": "inactive"}
{"gene knocked down": "Pts (GeneID 19286)", "reagent no.": 2, "GFP, % of control": 87.8, "viability (ATP), % of control": 155, "Outcome": "inactive"}
{"gene knocked down": "Pts (GeneID 19286)", "reagent no.": 3, "GFP, % of control": 75.8, "viability (ATP), % of control": 85.9, "Outcome": "inactive"}
{"gene knocked down": "Lsm3 (GeneID 67678)", "reagent no.": 1, "GFP, % of control": 122, "viability (ATP), % of control": 114, "Outcome": "active"}
{"gene knocked down": "Lsm3 (GeneID 67678)", "reagent no.": 2, "GFP, % of control": 75.9, "viability (ATP), % of control": 70.8, "Outcome": "inactive"}
{"gene knocked down": "Lsm3 (GeneID 67678)", "reagent no.": 3, "GFP, % of control": 67.9, "viability (ATP), % of control": 54.4, "Outcome": "inactive"}
{"gene knocked down": "S100a11 (GeneID 20195)", "reagent no.": 1, "GFP, % of control": 62.4, "viability (ATP), % of control": 71.7, "Outcome": "inactive"}
{"gene knocked down": "S100a11 (GeneID 20195)", "reagent no.": 2, "GFP, % of control": 79.5, "viability (ATP), % of control": 56.1, "Outcome": "inactive"}
{"gene knocked down": "S100a11 (GeneID 20195)", "reagent no.": 3, "GFP, % of control": 87.5, "viability (ATP), % of control": 66.9, "Outcome": "inactive"}
{"gene knocked down": "Slc16a6 (GeneID 104681)", "reagent no.": 1, "GFP, % of control": 101, "viability (ATP), % of control": 105, "Outcome": "inactive"}
{"gene knocked down": "Slc16a6 (GeneID 104681)", "reagent no.": 2, "GFP, % of control": 112, "viability (ATP), % of control": 117, "Outcome": "inactive"}
{"gene knocked down": "Slc16a6 (GeneID 104681)", "reagent no.": 3, "GFP, % of control": 114, "viability (ATP), % of control": 46.3, "Outcome": "inactive"}
{"gene knocked down": "Akr1a1 (GeneID 58810)", "reagent no.": 1, "GFP, % of control": 52.9, "viability (ATP), % of control": 59.2, "Outcome": "inactive"}
{"gene knocked down": "Akr1a1 (GeneID 58810)", "reagent no.": 2, "GFP, % of control": 60.2, "viability (ATP), % of control": 59.1, "Outcome": "inactive"}
{"gene knocked down": "Akr1a1 (GeneID 58810)", "reagent no.": 3, "GFP, % of control": 81.1, "viability (ATP), % of control": 85, "Outcome": "inactive"}
